# The other results are listed elsewhere or left out.
# What was measured:
# Experiment in all cases: glycan array binding signal (z-score within array); higher = stronger binding
# Details in all cases: glycan notation: IUPAC condensed, linker removed
# Neu5Ac(a2-8)Neu5Ac = target: Neu5Ac(a2-8)Neu5Ac
# Method in brief: (§1)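 The binding signal is a Z-score computed within each array. Data were drawn from 3228 arrays in the Consortium for Functional Glycomics database, restricted to those with a known protein sequence. Scores were averaged over arrays of the same protein sequence at different concentrations or buffers, and over linkers, and negative values can be taken as non-binding.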
# [1] = target: Neu5Ac(a2-8)Neu5Ac(a2-3)Gal(b1-3)GalNAc(b1-4)[Neu5Ac(a2-3)]Gal(b1-4)Glc
# Method in brief: as §1
# [2] = target: Neu5Ac(a2-8)Neu5Ac(a2-3)Gal(b1-3)GalNAc(b1-4)[Neu5Ac(a2-8)Neu5Ac(a2-3)]Gal(b1-4)Glc
# Method in brief: as §1
# [3] = target: Neu5Ac(a2-8)Neu5Ac(a2-3)Gal(b1-4)Glc
# Method in brief: as §1
# [4] = target: Neu5Ac(a2-8)Neu5Ac(a2-3)Gal(b1-4)GlcNAc
# Method in brief: as §1
# [5] = target: Neu5Ac(a2-8)Neu5Ac(a2-3)[Gal(b1-3)GalNAc(b1-4)]Gal(b1-4)Glc
# Method in brief: as §1
# [6] = target: Neu5Ac(a2-8)Neu5Ac(a2-3)[GalNAc(b1-4)]Gal(b1-4)Glc
# Method in brief: as §1
# [7] = target: Neu5Ac(a2-8)Neu5Ac(a2-8)Neu5Ac
# Method in brief: as §1
# [8] = target: Neu5Ac(a2-8)Neu5Ac(a2-8)Neu5Ac(a2-3)Gal(b1-4)Glc
# Method in brief: as §1
# [9] = target: Neu5Ac(a2-8)Neu5Ac(a2-8)Neu5Ac(a2-3)[Gal(b1-3)GalNAc(b1-4)]Gal(b1-4)Glc
# Method in brief: as §1
# [10] = target: Neu5Ac(a2-8)Neu5Ac(a2-8)Neu5Ac(a2-3)[GalNAc(b1-4)]Gal(b1-4)Glc
# Method in brief: as §1
# [11] = target: Neu5Ac(a2-8)Neu5Ac(a2-8)Neu5Ac(a2-8)Neu5Ac(a2-3)[GalNAc(b1-4)]Gal(b1-4)Glc
# Method in brief: as §1
# [12] = target: Neu5Ac(a2-8)Neu5Gc(a2-3)Gal(b1-4)GlcNAc
# Method in brief: as §1
# [13] = target: Neu5Ac(b2-6)Gal(b1-4)GlcNAc
# Method in brief: as §1
# Neu5Ac(b2-6)GalNAc = target: Neu5Ac(b2-6)GalNAc
# Method in brief: as §1
# [14] = target: Neu5Ac9Ac(a2-3)Gal(b1-3)GlcNAc
# Method in brief: as §1
# [15] = target: Neu5Ac9Ac(a2-3)Gal(b1-4)GlcNAc
# Method in brief: as §1
# [16] = target: Neu5Ac9Ac(a2-6)Gal(b1-4)GlcNAc
# Method in brief: as §1
# [17] = target: Neu5Gc(a2-3)Gal(b1-3)GlcNAc
# Method in brief: as §1
# [18] = target: Neu5Gc(a2-3)Gal(b1-3)[Fuc(a1-4)]GlcNAc
# Method in brief: as §1
# Neu5Gc(a2-3)Gal(b1-4)Glc = target: Neu5Gc(a2-3)Gal(b1-4)Glc
# Method in brief: as §1
# [19] = target: Neu5Gc(a2-3)Gal(b1-4)GlcNAc
# Method in brief: as §1
# [20] = target: Neu5Gc(a2-3)Gal(b1-4)GlcNAc(b1-3)Gal(b1-4)GlcNAc(b1-2)Man(a1-3)[Neu5Gc(a2-3)Gal(b1-4)GlcNAc(b1-3)Gal(b1-4)GlcNAc(b1-2)Man(a1-6)]Man(b1-4)GlcNAc(b1-4)GlcNAc
# Method in brief: as §1
# [21] = target: Neu5Gc(a2-3)Gal(b1-4)[Fuc(a1-3)]GlcNAc
# Method in brief: as §1
# [22] = target: Neu5Gc(a2-6)Gal(b1-4)GlcNAc
# Method in brief: as §1
# Neu5Gc(a2-6)GalNAc = target: Neu5Gc(a2-6)GalNAc
# Method in brief: as §1
# [23] = target: Neu5Gc(a2-8)Neu5Ac(a2-3)Gal(b1-4)GlcNAc
# Method in brief: as §1
# [24] = target: Neu5Gc(a2-8)Neu5Gc(a2-3)Gal(b1-4)GlcNAc
# Method in brief: as §1
# [25] = target: Neu5Gc(a2-8)Neu5Gc(a2-3)Gal(b1-4)GlcNAc(b1-3)Gal(b1-4)GlcNAc
# Method in brief: as §1
# [26] = target: Neu5Gc(a2-8)Neu5Gc(a2-6)Gal(b1-4)GlcNAc
# Method in brief: as §1
# [27] = target: Neu5Gc(b2-6)Gal(b1-4)GlcNAc
# Method in brief: as §1
binder,measurement,setting,value
SJCP1531 (Schistosoma japonicum) (protein) MFKVRIINLVNISTVLLLINLLQTKSQVNVEQLVTVLEVNIKAQLKNKTTEVLVEWNPLYQDNSMPEYRKLLDETCKLFLPFVNEKVPPSTYGGECTNANFSEAPQDGSYSRVNAELRLIYKYSDNPQIQTDRLQDDLNDREEFITSESSFVAYNPKFTVKIEKLFIPISESQTTPPPTTAKNDASKKDDDDNGGEDSKAPIDTFAMTASGNKGKKDDDDNGGEDSKAPIDTFAMTASGSKDERSTWTIIGIITLVVLIFVVIGGGITVFVKRC,glycan array binding signal (z-score),Neu5Ac(a2-8)Neu5Ac,0.11
same,glycan array binding signal (z-score),[1],1.9
same,glycan array binding signal (z-score),[2],0.787
same,glycan array binding signal (z-score),[3],-0.867
same,glycan array binding signal (z-score),[4],-1.67
same,glycan array binding signal (z-score),[5],-0.506
same,glycan array binding signal (z-score),[6],-0.211
same,glycan array binding signal (z-score),[7],0.075
same,glycan array binding signal (z-score),[8],0.59
same,glycan array binding signal (z-score),[9],-1.06
same,glycan array binding signal (z-score),[10],-0.714
same,glycan array binding signal (z-score),[11],1.45
same,glycan array binding signal (z-score),[12],-1.65
same,glycan array binding signal (z-score),[13],0.429
same,glycan array binding signal (z-score),Neu5Ac(b2-6)GalNAc,-1.49
same,glycan array binding signal (z-score),[14],-0.093
same,glycan array binding signal (z-score),[15],-0.874
same,glycan array binding signal (z-score),[16],0.138
same,glycan array binding signal (z-score),[17],0.155
same,glycan array binding signal (z-score),[18],0.412
same,glycan array binding signal (z-score),Neu5Gc(a2-3)Gal(b1-4)Glc,-1.12
same,glycan array binding signal (z-score),[19],-1.16
same,glycan array binding signal (z-score),[20],0.86
same,glycan array binding signal (z-score),[21],0.581
same,glycan array binding signal (z-score),[22],-0.348
same,glycan array binding signal (z-score),Neu5Gc(a2-6)GalNAc,0.537
same,glycan array binding signal (z-score),[23],-0.237
same,glycan array binding signal (z-score),[24],-1.35
same,glycan array binding signal (z-score),[25],-1.51
same,glycan array binding signal (z-score),[26],-1.29
same,glycan array binding signal (z-score),[27],-0.218

# Quoted from the listing (2 entries):
binder,measurement,setting,value
SJCP1531 (Schistosoma japonicum) (protein) MFKVRIINLVNISTVLLLINLLQTKSQVNVEQLVTVLEVNIKAQLKNKTTEVLVEWNPLYQDNSMPEYRKLLDETCKLFLPFVNEKVPPSTYGGECTNANFSEAPQDGSYSRVNAELRLIYKYSDNPQIQTDRLQDDLNDREEFITSESSFVAYNPKFTVKIEKLFIPISESQTTPPPTTAKNDASKKDDDDNGGEDSKAPIDTFAMTASGNKGKKDDDDNGGEDSKAPIDTFAMTASGSKDERSTWTIIGIITLVVLIFVVIGGGITVFVKRC,glycan array binding signal (z-score),[6],-0.211
same,glycan array binding signal (z-score),[7],0.075

# Source: the supplement of paper PMC8728848
